Measurements reported in PubChem BioAssay AID504408 (Broad Institute, 2011).
The whole screen tested about 300,000 compounds, of which about 5,200 (1.7%) were called active. Inconclusive results, whose numbers are uncertain, are shown with a selection of clear calls.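 How the source made its calls: active means mean replicate activation of at least 50% with a set share of replicates each reaching 50%; inconclusive means only one of those two conditions met; inactive means mean below 50% and too few replicates reaching it.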

Test: HSF-1 activators, primary screen, NIH3T3-HGL cells, MG132 stress, luminescence, single point (AID 504408);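 further: 0% = median of the neutral control wells and 100% = twice that signal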
Conditions: NIH3T3-HGL HSF-1 luciferase reporter, MG132, 8 h; at 9 µM; stronger effect = higher value; 100% = twice DMSO control signal

activation, active:
O=C(Nc1ccc2c(c1)OCCO2)c1cc2ccccc2o1 60.8%
Cc1cccc(CSc2cccc3cccnc23)c1 288%
c1ccc(OCc2cc(-c3ccccc3)no2)cc1 61.3%
Cc1cccc(-n2ncc3c(Nc4ccc(F)cc4)ncnc32)c1 51.3%
Cc1ccc(C)c(Cn2nnc3c(=O)[nH]c(C4CCN(C(=O)c5cccs5)CC4)nc32)c1 75.8%
O=[N+]([O-])c1cc([N+](=O)[O-])c2cc3ccccc3nc2c1 139%
Cc1nc(NC(=O)c2ccccc2)sc1C 57.7%
CCOC(=O)c1c(C)sc2c1N(C(=O)CCl)c1cc(Cl)ccc1S2 79.3%
O=C(NC(=C(Cl)Cl)S(=O)(=O)c1ccc(Cl)cc1)c1ccccc1 67%
C/C(N)=C(/C#N)C(=O)COC(=O)c1cc(C)n(-c2ccc(F)cc2)c1C 84.2%
Cc1nc(Sc2ccc(Br)cc2)c(C#N)c(C)c1[N+](=O)[O-] 128%
CN1c2ccccc2C(O)=C(C(=S)Nc2ccc(Cl)cc2)S1(=O)=O 59.9%
CCOc1ccc(CN(C)C(=O)CNC(=O)c2ccc3ccccc3c2)cc1OC 84.2%
S=c1[nH]nc(-c2ccncc2)n1/N=C/C(Cl)=C\c1ccccc1 78.1%
Cc1ccc(-n2ncc3c(NCc4cccnc4)ncnc32)cc1C 55.3%
CCCc1ccc2oc(C(=O)N3CCC(COC)C3)c(C)c2c1 (centres undefined) 60.9%
N#Cc1c(N)n(C2OC(CO)C(O)C2O)c2ncnc(N)c12 (centres undefined) 78.4%
C=C(CCC(=O)c1ccccc1)C(=O)c1ccccc1 103%
Cn1cc([N+](=O)[O-])c(C(=O)Nc2ccc(C3CCCCC3)cc2)n1 74.7%

activation, inconclusive:
N#Cc1cccc(S(=O)(=O)Nc2c(NC3CCCCC3)c3ccccc3oc2=O)c1 54.3%
Cc1nn(C(C)C(=O)NCc2ccccc2F)c(=O)c2nn(-c3ccccc3)c(C)c12 (centres undefined) 50.1%
CCCN1C(=O)c2ccccc2NC1c1ccc(Cl)c(Cl)c1 (centres undefined) 51.1%
CCCCOc1ccc(-c2nc(/C=N/c3nccs3)c(O)o2)cc1 53.2%
CCOC(=O)c1ccccc1NC(=O)CSc1nc(N)cc(N)n1 50.2%
CCOC(=O)Cc1nnc(Nc2ccc(C)cc2C)c2ccccc12 53.5%
Cc1ccc(CN2CCN(CC(C)C)C(CCO)C2)s1 (centres undefined) 50.4%
O=S(=O)(Nc1cc(Sc2cccc3cccnc23)c(O)c2ccccc12)c1ccc(F)cc1 110%
Cn1cccc1C(=O)NC(=O)CSc1nc2ccccc2s1 50.5%
COc1cc(/C=C(/C#N)c2ccccc2F)ccc1OCc1ccccc1 54.4%
Cc1cccnc1Nc1nc(-c2ccccc2)cs1 50.7%
Cc1ccccc1N1C(=O)CC(Sc2nnc(-c3ccccc3)o2)C1=O (centres undefined) 50.7%
CCOc1ccc2nc(SC(C)C(N)=O)[nH]c2c1 (centres undefined) 50.1%
Cc1cccc(OCc2nnc(SCC(=O)Nc3nccs3)o2)c1 52.1%
Cc1cccc(-c2cc3c(nn2)-c2ccccc2C3=O)c1 54%
O=c1oc2cc(O)ccc2cc1S(=O)(=O)c1ccccc1 52.9%
COc1ccccc1C(=O)N/N=C/c1ccc2c(c1)OCO2 51.1%
COc1cc(Cl)c(C)cc1NC(=O)COC(=O)C(NS(=O)(=O)c1ccc(Cl)cc1)C(C)O (centres undefined) 54.5%
Cc1cccc(/C=C/C(=O)c2cc(Br)ccc(=O)c2O)c1 59.4%
Cc1ccc(CNC(=O)CSc2ccsc2[N+](=O)[O-])cc1 53.4%
O=C(Nc1ccc(S(=O)(=O)N2CCCCC2)cc1)C1CCN(C(=O)c2ccco2)CC1 78.3%
CCCc1nc2oc3cc(OC)ccc3c(=O)c2c(=O)n1CCc1ccccc1 50.8%
COc1cccc(C(=O)C2CCCN(C(=O)CCc3scnc3C)C2)c1 (centres undefined) 51.8%
CC(C)c1cc(C(=O)Nc2cc(Cl)ccc2O)no1 51.5%
CSc1nc(-c2ccc(Cl)cc2)c(C#N)c(=O)[nH]1 51%
Cc1c(-c2n[nH]c(=S)n2-c2ccc(C(F)(F)F)cc2)nnn1-c1ccccc1 58.1%
CCN1C(=O)c2cccc3c(S(=O)(=O)N(C(=O)c4ccncc4)c4ccc(OC)cc4)ccc1c23 55.8%
COc1ccc(-c2nc(Cn3c(SCc4ccc(F)cc4)nc4ccncc43)c(C)o2)cc1OC 51.3%
c1ccc2[nH]c(SCc3cn4ccccc4n3)nc2c1 50.8%
COc1cc2c(cc1NC(=O)Cc1ccc(C)cc1)oc1ccccc12 50.8%
CC1=CC(C)(C)NC(=S)N1c1cccc(C)c1 54.8%
COc1ccc(CCNC(=O)CNCC2CCCO2)cc1OC (centres undefined) 53.1%
C/C(=N/NC(=O)c1ccco1)c1ccc(NC(=O)c2ccc(Br)o2)cc1 55.7%
COc1ccc(N=C2C(=Nc3ccc(OC)cc3)N(c3ccc(OC)cc3)C(=S)N2c2ccccc2)cc1 50.8%
CCOC(=O)Cc1csc(NC(=O)CSc2ccc(Br)cc2)n1 50%
O=C(CC12CC3CC(CC(Br)(C3)C1)C2)NCc1ccccc1 60.9%
COc1cc(/C=N/NC(=O)c2ccc(O)cc2)ccc1OCC(=O)Nc1cccc([N+](=O)[O-])c1 52.7%
CC1(c2ccc([N+](=O)[O-])cc2)NC(=O)N(CC(=O)c2ccc3c(c2)OCO3)C1=O (centres undefined) 52.1%
COc1ccccc1C1CC(c2ccco2)=NN1S(C)(=O)=O (centres undefined) 54.7%
O=C(NNC(=S)Nc1ccc(Cl)cc1)c1cccs1 67.2%
O=C(CNc1ccc2ccccc2c1)N/N=C/c1ccc(C(=O)O)cc1 50.2%
O=c1oc(-c2cc3ccccc3o2)nc2sc3c(c12)CCCC3 57.8%
COc1ccc(/C=C/C(=O)c2ccc([N+](=O)[O-])o2)cc1OC 57%
CN=C1S/C(=C\c2ccc(N3CCCC3)c(F)c2)C(=O)N1C 50.5%
O=C(COc1ccccc1[N+](=O)[O-])N/N=C/c1cccc(OC(=O)c2ccc3c(c2)OCO3)c1 50.4%
Cc1ccc(S(=O)(=O)c2cc3c(=O)n4ccccc4nc3n(Cc3ccco3)c2=N)cc1C 50.9%
Cn1c(C(=O)OC(C(=O)NC(C)(C)C)c2cccnc2)cc2sccc21 (centres undefined) 56.8%
COc1ccc(-n2cnnc2SCC(=O)N(C)C2CCS(=O)(=O)C2)cc1 (centres undefined) 51.6%
CCCC(=O)Nc1ccc2c(c1)Cc1ccccc1-2 56.7%
CCOc1cc(C(=S)N2CCOCC2)ccc1OS(=O)(=O)c1ccc(C)cc1 51.7%
CCC(C)C(=O)Nc1ncc2c(n1)CC(c1cccs1)CC2=O (centres undefined) 55.9%
O=C(/C=C/Nc1ccccc1F)c1cccs1 51.8%

5 entries already listed, arranged by molar mass, largest number first:
activation, inconclusive:
N#Cc1cccc(S(=O)(=O)Nc2c(NC3CCCCC3)c3ccccc3oc2=O)c1 54.3%
CC1(c2ccc([N+](=O)[O-])cc2)NC(=O)N(CC(=O)c2ccc3c(c2)OCO3)C1=O (centres undefined) 52.1%
Cc1cccc(OCc2nnc(SCC(=O)Nc3nccs3)o2)c1 52.1%
Cn1cccc1C(=O)NC(=O)CSc1nc2ccccc2s1 50.5%
CN=C1S/C(=C\c2ccc(N3CCCC3)c(F)c2)C(=O)N1C 50.5%

2 entries picked at random from the list so far:
activation, inconclusive:
CCOc1ccc2nc(SC(C)C(N)=O)[nH]c2c1 (centres undefined) 50.1%
Cc1cccc(-c2cc3c(nn2)-c2ccccc2C3=O)c1 54%

Following part:

activation, inactive:
CCOc1ccc(N(CC)C(=O)Cc2c(C(=O)O)n(C)c3ccccc23)cc1 -15.7%
NC(=O)COc1ccc2cc(-c3ccccc3)c(=O)oc2c1 8.49%
Cc1ccc2[nH]c3c(c2c1)CNCC3 -3.89%
NS(=O)(=O)c1ccc(CCNC(=O)CCCNC(=O)c2ccc(Cl)cc2)cc1 -1.5%
CCn1c(C)nc2cc(C(=O)N/N=C/c3ccc(O)cc3)ccc21 -32.2%
CC(C)n1c(SCC(=O)Nc2ccc(N3CCOCC3)cc2)nnc1-c1ccco1 9.2%
COc1cccc(/C=C/C(=O)c2ccc3c(c2)OCCO3)c1OC 23.1%
CC(C)c1nnc(NC(=O)CSc2nnc(NC(=O)c3c(F)cccc3F)s2)s1 -1.88%
COC(=O)CN1C(=O)COc2ccc(S(=O)(=O)NCc3ccc(Cl)cc3)cc21 5.52%
Cc1ccc(CSc2sc(C(=O)c3ccccc3)c(N)c2C#N)cc1 2.22%
O=C(O)c1ccc2c(=O)n(-c3ccccc3)c(=S)[nH]c2c1 -8.32%
CC(C)C(=O)NNC(=O)CSc1ncnc2c1cnn2-c1ccccc1Cl 9.67%
CSc1ccc(NC(=O)N2CCC(C(=O)c3ccc(F)cc3)CC2)cc1 -8.41%
Cc1ccc(S(=O)(=O)/N=C(\c2ccc(F)cc2)n2c(C)nc3ccccc32)cc1 -4.11%
COc1ccc(-n2nc(C(=O)NCC(=O)Nc3cc(OC)c(OC)c(OC)c3)c3ccccc3c2=O)cc1OC -40.1%
CC[C@H]1OC(=O)[C@H](C)[C@@H](O[C@H]2C[C@@](C)(OC)[C@@H](O)[C@H](C)O2)[C@H](C)[C@@H](O[C@@H]2O[C@H](C)C[C@H](N(C)C)[C@H]2O)[C@](C)(O)C[C@@H](C)C(=NOCOCCOC)[C@H](C)[C@@H](O)[C@]1(C)O -0.174%
CC(C)CC(OC(=O)c1nsc(Cl)c1Cl)C(=O)NC1CCCC1 (centres undefined) -16.5%
Cc1sc2c(c1C)C(O)=C(C(=O)Nc1ccccc1)S(=O)(=O)N2C 40.9%
